Experimental data reported in article PMC9723800, “Structural and dynamic basis of DNA capture and translocation by mitochondrial Twinkle helicase” (Nucleic Acids Research, 2022).
Residue numbers refer to the chain shown, from its start. The exact form of at least one protein or probe is not confirmed. At least one verdict was read from the data and is not stated in words by the source. Tags and fusion partners may be left off the protein sequences shown.

Tests used:
[1] = target: T1, LcTwinkle E325Q E452Q (Lates calcarifer) (UniProt A0A4W6C5C5); assay: fluorescence anisotropy; details: 0.5 mM ATP, 1 mM Mg2+, FA: 25 mM Tris-HCl pH 8.0, 150 mM KCl, 1 mM MgCl2, 20 nM Cy5-ssDNA, temperature not stated, recombinant protein, protein details: N-terminal His tag, PreScission-cleaved, label: 5'-Cy5, single-stranded DNA
T1 sequence (looked up, limits assumed): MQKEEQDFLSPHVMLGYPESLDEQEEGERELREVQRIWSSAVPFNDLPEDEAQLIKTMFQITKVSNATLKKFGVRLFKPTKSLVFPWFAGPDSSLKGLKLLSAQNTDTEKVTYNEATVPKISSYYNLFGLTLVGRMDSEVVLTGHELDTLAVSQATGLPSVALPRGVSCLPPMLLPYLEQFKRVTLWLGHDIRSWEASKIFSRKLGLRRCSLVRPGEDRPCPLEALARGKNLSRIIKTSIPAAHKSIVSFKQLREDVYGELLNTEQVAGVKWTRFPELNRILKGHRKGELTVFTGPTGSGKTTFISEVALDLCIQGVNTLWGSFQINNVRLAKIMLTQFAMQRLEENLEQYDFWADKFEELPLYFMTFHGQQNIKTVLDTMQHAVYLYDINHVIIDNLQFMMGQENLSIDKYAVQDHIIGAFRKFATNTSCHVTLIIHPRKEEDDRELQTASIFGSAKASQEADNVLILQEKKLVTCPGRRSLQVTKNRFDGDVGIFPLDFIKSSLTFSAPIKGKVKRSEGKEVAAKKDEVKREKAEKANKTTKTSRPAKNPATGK

[2] = target: T2, LcTwinkle WT (Lates calcarifer) (UniProt A0A4W6C5C5); assay: fluorescence anisotropy; details: 0.5 mM ATP, FA: 25 mM Tris-HCl pH 8.0, 150 mM KCl, 1 mM MgCl2, 20 nM Cy5-ssDNA, temperature not stated, recombinant protein, protein details: N-terminal His tag, PreScission-cleaved
T2 sequence (looked up, limits assumed): T1 sequence (looked up, limits assumed) with Q325E

Measured: binding result

GGATTATTTACATTGGCAGATTCACC [Cy5-ssDNA]
binds: [1] | [2]; 1 mM Mg2+, label: 5'-Cy5, single-stranded DNA | [2]; non-hydrolyzable ATP analogs, label: 5'-Cy5, single-stranded DNA
